The record followed here is PMC7862700.

By UniProt entry, the sequences of proteins in these tests, tags left out. Where a name states a change or a piece, a line headed by the entry shows the natural chain unless it says otherwise.
UniProt P32519: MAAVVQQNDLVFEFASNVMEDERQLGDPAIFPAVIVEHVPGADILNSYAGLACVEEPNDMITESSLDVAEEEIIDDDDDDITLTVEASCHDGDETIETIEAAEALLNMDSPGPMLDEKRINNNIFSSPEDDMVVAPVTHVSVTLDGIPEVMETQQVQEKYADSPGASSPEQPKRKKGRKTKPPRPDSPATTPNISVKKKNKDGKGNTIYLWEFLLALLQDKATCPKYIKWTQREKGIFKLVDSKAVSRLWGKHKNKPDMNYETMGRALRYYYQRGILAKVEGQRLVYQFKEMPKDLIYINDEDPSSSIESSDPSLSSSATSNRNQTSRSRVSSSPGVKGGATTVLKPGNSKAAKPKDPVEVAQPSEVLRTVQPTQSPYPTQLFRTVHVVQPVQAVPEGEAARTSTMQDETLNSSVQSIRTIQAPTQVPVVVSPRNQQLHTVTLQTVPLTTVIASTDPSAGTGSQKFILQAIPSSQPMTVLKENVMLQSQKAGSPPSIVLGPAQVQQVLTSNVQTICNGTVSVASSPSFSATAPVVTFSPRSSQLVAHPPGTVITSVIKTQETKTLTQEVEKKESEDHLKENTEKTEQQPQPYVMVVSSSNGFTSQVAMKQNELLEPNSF
UniProt P50549: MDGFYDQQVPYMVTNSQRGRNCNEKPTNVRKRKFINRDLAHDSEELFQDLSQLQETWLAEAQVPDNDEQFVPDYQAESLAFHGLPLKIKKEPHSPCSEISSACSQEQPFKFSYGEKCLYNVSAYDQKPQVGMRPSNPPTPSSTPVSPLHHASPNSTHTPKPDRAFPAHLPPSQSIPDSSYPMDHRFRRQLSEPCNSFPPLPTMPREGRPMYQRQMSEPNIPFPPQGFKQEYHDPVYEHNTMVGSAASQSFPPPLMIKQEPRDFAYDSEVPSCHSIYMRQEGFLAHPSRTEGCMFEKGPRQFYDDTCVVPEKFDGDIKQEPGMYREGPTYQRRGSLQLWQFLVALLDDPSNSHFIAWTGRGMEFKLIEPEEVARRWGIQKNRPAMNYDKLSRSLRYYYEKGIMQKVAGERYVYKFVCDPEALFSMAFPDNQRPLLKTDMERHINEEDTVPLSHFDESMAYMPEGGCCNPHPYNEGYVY

What all share (test): DAPPL (digital affinity profiling via proximity ligation, sequencing)
Common to all, as to settings: 10 mM Tris-HCl pH 7.5, 50 mM NaCl, 1 mM DTT, 4% glycerol, room temperature, 30 min; GST-TFs on glutathione beads, 16-mer random dsDNA library, 0.1% …; high values mean tight binding; double strand, one strand shown; scale: fold enrichment (6-mer frequency, TF over GST control)

One experiment deals with ELF1 (UniProt P32519).
A further experiment addresses T1, ETV4 (UniProt P43268).
T1 sequence: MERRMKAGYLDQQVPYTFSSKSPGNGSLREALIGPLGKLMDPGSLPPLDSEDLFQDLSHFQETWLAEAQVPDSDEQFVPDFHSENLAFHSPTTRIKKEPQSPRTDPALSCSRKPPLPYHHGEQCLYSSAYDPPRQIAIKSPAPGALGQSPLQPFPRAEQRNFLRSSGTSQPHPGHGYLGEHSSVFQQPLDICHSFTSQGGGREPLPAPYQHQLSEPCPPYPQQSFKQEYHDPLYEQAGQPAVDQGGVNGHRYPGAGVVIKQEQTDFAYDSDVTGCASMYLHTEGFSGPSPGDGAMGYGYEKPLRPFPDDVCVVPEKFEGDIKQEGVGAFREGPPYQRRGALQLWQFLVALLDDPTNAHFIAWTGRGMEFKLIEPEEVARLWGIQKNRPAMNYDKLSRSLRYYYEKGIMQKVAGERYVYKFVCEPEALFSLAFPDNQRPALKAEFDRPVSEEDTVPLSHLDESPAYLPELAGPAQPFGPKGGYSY

The target in another experiment is ETV1 (UniProt P50549).
The next experiment has as its target T2, ERF (UniProt P50548).
T2 sequence: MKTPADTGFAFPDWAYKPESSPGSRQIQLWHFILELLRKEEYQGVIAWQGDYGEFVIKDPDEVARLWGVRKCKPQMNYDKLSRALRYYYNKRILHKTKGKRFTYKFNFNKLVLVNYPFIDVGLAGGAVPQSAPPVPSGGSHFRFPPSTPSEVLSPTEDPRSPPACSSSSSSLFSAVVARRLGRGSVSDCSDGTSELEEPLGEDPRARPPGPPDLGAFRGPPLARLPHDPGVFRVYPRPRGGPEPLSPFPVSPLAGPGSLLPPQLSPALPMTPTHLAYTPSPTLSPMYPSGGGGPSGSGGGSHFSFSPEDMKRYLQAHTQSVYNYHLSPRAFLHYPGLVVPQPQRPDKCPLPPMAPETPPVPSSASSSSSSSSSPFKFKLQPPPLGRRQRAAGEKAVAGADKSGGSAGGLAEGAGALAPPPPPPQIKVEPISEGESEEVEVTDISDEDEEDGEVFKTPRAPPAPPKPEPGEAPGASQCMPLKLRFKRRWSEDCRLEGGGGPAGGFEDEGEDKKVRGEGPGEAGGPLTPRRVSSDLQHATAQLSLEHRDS

The list shows a part of the results, in another mix than the full data. For some of these results: At the low end of the ranking the order means little. Some of the results follow. For some of these results: Construct or isoform of the protein are uncertain.

With CCCAAA, the binding signal was determined as 1.18 in the experiment with ELF1, 1.09 in the experiment with ETV4, 1.08 in the experiment with ETV1 and 1.11 in the experiment with ERF.

Turning to ATTAAA, the results for the binding signal with ELF1, with ETV4 and with ETV1 were 1.2, 1.12 and 1.18, respectively.

As for GTGTTA, the binding signal with ELF1 is 0.915; with ETV4 it was 0.955; with ETV1 it was 0.94.

For GCCTGC, the binding signal came to 1.13 with ELF1, 1.08 with ETV4 and 1.18 with ETV1.

As to TGATGC, the binding signal was 1.64 with ELF1, 1.64 with ETV4, 1.55 with ETV1 and 1.48 with ERF.

Take ACGTAA: the binding signal with ELF1 amounted to 1.07; with ETV4, 1.06; with ETV1, 1.12; with ERF it was 1.12.

Take ACTGGT: the values for the binding signal with ELF1, with ETV4 and in the experiment with ETV1 were 1.13, 0.997 and 0.957, respectively.

As to CAGCGC, the binding signal came out at 1.08 in the experiment with ELF1, 1.06 with ETV4, 0.862 in the experiment with ETV1 and 0.971 in the experiment with ERF.

As for AGCTGT, the binding signal came to 0.966 with ELF1, 1.03 in the experiment with ETV4, 0.948 with ETV1 and 0.935 with ERF.

Consider GTGGCC, for which the binding signal was 1.05 with ELF1, 0.987 in the experiment with ETV4, 0.972 with ETV1 and 0.965 in the experiment with ERF.

Turning to GCTATC, the binding signal is 1.14 with ELF1, 1.03 with ETV4, 1.09 in the experiment with ETV1 and 1.13 in the experiment with ERF.

Turning to TGTTCC, the binding signal was found to be 1.66 with ELF1, 1.7 in the experiment with ETV4 and 1.86 with ETV1.

Consider GCTTCT, for which the binding signal with ELF1 worked out at 1.59; in the experiment with ETV4, 1.57; in the experiment with ETV1 it was 1.42.

Regarding CCGTCT, the binding signal with ELF1 is 1.46; in the experiment with ETV4, 1.35; in the experiment with ETV1 it was 1.38.

On to TGAATA, for which the binding signal with ELF1 stood at 1.1; in the experiment with ETV4 it was 1.11; in the experiment with ETV1, 1.15.

In the case of CCCGGT, the binding signal with ELF1 came out at 0.997; in the experiment with ETV4 it was 1.01; with ETV1 it was 1.07; in the experiment with ERF it was 0.942.

As for GTTGCG, the values for the binding signal with ETV4, with ETV1 and in the experiment with ERF were 1.05, 0.991 and 1.14, respectively.

As to AGTATA, the results for the binding signal with ELF1, in the experiment with ETV4 and in the experiment with ETV1 were 0.941, 0.924 and 0.964, respectively.

In the case of GTCACG, the binding signal was determined as 0.983 with ELF1, 0.942 with ETV4 and 1.1 with ETV1.

On to TGTTTA, for which the binding signal was found to be 1.13 with ELF1, 1.12 with ETV4 and 1.09 in the experiment with ETV1.

With CATATG, the binding signal is 0.995 with ELF1, 1.09 in the experiment with ETV4 and 0.97 in the experiment with ETV1.

For the sequence GTGCCC, the binding signal in the experiment with ELF1 was determined as 0.999; with ETV4, 1.01; with ETV1, 0.925; with ERF, 0.868.

Regarding TCGTTT, the figures for the binding signal in the experiment with ELF1, with ETV4 and with ETV1 were 1.15, 1.18 and 1.18, respectively.

With TATTAG, the binding signal amounted to 0.992 with ELF1, 1.04 with ETV4 and 1.12 with ETV1.

On to CACGAT, for which the binding signal in the experiment with ELF1 is 1.27; with ETV4, 1.29; with ETV1, 1.28; in the experiment with ERF, 1.29.

Consider CACTAG, for which the binding signal in the experiment with ETV4 came out at 1.06; with ETV1, 0.915; with ERF, 0.978.

On to CATGCC, for which the binding signal in the experiment with ELF1 amounted to 1.16; with ETV4, 1.18; with ETV1 it was 1.12.

As for TGGCTC, the binding signal in the experiment with ELF1 worked out at 1.46; in the experiment with ETV4, 1.56; with ETV1, 1.42.
